In publication PMC2852906 one finds binding data, which are given here for 2 substances.

By UniProt entry, the sequences of proteins in these tests, tags left out.
UniProt Q9V6Q2: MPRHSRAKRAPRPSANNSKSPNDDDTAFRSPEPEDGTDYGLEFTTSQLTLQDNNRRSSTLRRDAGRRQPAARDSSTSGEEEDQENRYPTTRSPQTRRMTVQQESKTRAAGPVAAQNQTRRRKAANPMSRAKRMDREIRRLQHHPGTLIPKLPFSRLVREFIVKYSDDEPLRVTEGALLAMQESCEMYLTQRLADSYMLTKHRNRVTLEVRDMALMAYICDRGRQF
UniProt Q7KU24: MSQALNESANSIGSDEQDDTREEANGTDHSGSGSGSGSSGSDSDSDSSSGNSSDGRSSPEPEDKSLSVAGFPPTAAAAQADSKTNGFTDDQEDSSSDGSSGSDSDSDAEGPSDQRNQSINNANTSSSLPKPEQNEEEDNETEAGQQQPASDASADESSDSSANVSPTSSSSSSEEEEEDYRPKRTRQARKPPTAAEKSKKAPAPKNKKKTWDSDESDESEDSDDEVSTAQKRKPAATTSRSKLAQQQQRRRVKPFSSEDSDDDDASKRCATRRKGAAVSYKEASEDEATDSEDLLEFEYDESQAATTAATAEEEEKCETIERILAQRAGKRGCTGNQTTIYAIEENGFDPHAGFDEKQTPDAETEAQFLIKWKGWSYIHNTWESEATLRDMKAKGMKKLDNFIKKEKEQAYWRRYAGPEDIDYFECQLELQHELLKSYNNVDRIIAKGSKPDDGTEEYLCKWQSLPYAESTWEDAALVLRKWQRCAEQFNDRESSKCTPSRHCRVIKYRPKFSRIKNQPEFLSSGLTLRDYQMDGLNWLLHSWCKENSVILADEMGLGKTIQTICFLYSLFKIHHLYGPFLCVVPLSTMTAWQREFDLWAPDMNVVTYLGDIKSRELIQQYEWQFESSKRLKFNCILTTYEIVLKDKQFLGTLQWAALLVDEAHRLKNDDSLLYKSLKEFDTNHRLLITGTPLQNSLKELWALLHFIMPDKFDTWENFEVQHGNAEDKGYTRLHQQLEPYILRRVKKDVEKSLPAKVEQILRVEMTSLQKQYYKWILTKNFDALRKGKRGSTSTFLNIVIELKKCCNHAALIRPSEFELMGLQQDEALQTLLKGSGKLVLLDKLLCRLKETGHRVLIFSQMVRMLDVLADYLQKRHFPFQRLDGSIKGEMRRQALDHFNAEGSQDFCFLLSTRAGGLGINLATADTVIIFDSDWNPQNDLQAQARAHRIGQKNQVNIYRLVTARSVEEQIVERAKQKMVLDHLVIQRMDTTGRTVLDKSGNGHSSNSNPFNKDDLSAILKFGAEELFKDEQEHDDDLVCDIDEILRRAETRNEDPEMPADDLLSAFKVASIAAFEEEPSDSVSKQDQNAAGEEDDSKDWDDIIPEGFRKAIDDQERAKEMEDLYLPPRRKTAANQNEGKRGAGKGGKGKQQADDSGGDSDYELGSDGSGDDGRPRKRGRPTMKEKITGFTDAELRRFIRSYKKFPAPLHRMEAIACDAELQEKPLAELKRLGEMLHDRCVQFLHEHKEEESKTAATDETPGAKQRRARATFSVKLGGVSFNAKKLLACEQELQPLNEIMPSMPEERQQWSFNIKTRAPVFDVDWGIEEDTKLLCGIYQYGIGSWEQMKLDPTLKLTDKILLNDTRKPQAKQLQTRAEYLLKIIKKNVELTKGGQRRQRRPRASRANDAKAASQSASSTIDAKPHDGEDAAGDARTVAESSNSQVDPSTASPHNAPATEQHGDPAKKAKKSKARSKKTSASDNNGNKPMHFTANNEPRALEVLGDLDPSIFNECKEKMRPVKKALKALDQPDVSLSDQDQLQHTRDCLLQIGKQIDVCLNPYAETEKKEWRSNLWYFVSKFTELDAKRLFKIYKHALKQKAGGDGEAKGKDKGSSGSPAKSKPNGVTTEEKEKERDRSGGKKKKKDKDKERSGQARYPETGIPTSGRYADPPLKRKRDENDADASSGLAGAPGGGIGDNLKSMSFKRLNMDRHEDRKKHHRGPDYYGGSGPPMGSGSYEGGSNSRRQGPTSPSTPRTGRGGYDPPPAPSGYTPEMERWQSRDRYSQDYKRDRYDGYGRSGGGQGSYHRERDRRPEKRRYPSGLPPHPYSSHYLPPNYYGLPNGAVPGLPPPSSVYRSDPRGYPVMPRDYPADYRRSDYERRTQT

These are yes or no findings as the source states them, for the method shown. Binding seen in cells or lysates may run through a third protein.

In assay [1] the target is EGFP-tagged CenH3^CID (Drosophila) (UniProt Q9V6Q2). The assay can be described thus: co-IP; S2 cell chromatin digested with micrococcal nuclease to release mainly mononucleosomes; supernatant in buffer C (15 mM Tris/HCl pH 7.6, 150 mM NaCl, 1 mM EDTA, 1 mM DTT) incubated overnight at 4°C with anti-GFP or anti-CHD1 antibodies on protein A sepharose; immunoblot with anti-CID and anti-CHD1.

In assay [2] the target is Drosophila CHD1 (Drosophila (endogenous in S2 cells)) (UniProt Q7KU24). The assay is described as above.

For “Drosophila CHD1 (from UniProt Q7KU24 1-1883)”, in assay [1], the binding result is recorded as “no binding”.

In the case of “EGFP-tagged CenH3^CID (from UniProt Q9V6Q2 1-225)”, in assay [2], the binding result was “no binding”.
